Holding throughout (test): log2 fold change, soluble protein after heating vs DMSO (PISA); higher = thermal stabilisation; K562 cells, 10 uM, 30 min; active = over 0.2 and 3.5 SD of the protein, either way, in both replicates (recomputed)
Compound in experiment [1]: COC1=CC=C(C=C1)CN2C=CC3=C2C=C(C=C3)C(=O)NO
A digest of the protocol:
(§1)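 K562 cells (2×10^6 cells/mL) were treated with 10 μM compound for 30 min, and aliquots were heated for 3 min over 48°C-58°C. Pooled aliquots were extracted in PBS with 0.5% NP-40 at 4°C, and the supernatant after 21,000xg for 90 min was measured by TMTpro 16plex LC-MS/MS with channel sums equalised. Reported thermal stability, relative to control samples and from duplicates, is a log2 fold change.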

Protein sequences, listed by entry. Tags and fused reporters are not part of them. Lines headed by an entry give the natural chain unless they say otherwise; changes in a name come on top.
UniProt Q8IVH8: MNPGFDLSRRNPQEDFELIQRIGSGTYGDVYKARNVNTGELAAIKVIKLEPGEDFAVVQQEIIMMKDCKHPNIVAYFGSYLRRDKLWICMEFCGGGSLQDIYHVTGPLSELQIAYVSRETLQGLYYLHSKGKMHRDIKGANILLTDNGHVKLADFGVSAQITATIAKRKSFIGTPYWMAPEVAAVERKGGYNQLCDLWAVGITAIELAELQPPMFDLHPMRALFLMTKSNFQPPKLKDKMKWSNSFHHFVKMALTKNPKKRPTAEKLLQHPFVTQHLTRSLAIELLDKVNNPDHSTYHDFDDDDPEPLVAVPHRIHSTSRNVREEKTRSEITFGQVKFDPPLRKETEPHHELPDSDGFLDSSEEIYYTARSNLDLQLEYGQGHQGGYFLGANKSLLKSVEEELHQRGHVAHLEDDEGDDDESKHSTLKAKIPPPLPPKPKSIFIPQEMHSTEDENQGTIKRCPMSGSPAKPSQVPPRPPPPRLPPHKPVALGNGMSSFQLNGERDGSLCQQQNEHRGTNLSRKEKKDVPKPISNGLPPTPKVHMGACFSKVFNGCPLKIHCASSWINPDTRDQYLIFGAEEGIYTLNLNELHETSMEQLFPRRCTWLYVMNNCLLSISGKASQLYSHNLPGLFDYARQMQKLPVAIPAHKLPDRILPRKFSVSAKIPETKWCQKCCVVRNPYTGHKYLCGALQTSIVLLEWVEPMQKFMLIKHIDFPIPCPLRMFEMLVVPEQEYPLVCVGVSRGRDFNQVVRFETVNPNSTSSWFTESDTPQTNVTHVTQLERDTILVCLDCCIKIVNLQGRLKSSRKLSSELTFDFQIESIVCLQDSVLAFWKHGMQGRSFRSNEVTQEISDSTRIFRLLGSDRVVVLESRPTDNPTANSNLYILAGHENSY
UniProt P48449: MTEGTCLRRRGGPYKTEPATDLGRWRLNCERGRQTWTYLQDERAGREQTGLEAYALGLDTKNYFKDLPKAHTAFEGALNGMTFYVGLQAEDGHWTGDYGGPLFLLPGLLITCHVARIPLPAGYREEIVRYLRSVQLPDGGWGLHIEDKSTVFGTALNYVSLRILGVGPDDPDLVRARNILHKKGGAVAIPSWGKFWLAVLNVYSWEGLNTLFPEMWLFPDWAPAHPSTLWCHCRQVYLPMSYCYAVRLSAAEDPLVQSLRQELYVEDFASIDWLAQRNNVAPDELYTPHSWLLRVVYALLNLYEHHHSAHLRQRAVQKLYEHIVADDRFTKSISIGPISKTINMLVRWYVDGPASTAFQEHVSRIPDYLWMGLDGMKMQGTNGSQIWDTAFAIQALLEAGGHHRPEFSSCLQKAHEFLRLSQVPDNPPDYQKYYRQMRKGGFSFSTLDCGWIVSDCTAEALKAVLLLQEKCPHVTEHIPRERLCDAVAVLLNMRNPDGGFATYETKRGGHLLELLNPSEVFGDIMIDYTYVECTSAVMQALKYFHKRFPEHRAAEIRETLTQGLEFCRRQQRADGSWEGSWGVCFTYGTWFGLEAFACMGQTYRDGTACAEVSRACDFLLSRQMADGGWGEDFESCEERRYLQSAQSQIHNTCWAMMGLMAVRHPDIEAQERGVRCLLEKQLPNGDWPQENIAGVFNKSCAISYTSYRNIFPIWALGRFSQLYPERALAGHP
UniProt P12980: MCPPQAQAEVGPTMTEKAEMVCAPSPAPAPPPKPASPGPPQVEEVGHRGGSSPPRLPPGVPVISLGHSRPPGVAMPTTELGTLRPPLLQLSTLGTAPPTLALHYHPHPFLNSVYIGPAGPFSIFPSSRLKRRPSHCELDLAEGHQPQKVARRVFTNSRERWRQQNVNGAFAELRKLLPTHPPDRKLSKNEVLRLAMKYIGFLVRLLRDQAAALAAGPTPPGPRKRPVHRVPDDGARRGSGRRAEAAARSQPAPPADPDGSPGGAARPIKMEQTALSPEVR
UniProt Q9Y4Y9: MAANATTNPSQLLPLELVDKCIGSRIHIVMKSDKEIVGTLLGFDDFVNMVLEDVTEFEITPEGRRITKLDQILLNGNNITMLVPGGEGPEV
UniProt Q9ULX9: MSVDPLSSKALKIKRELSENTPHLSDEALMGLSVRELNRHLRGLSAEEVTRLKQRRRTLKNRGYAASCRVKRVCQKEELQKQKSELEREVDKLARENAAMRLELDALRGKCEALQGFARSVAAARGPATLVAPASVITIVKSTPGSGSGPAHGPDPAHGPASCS
UniProt Q8WVR3: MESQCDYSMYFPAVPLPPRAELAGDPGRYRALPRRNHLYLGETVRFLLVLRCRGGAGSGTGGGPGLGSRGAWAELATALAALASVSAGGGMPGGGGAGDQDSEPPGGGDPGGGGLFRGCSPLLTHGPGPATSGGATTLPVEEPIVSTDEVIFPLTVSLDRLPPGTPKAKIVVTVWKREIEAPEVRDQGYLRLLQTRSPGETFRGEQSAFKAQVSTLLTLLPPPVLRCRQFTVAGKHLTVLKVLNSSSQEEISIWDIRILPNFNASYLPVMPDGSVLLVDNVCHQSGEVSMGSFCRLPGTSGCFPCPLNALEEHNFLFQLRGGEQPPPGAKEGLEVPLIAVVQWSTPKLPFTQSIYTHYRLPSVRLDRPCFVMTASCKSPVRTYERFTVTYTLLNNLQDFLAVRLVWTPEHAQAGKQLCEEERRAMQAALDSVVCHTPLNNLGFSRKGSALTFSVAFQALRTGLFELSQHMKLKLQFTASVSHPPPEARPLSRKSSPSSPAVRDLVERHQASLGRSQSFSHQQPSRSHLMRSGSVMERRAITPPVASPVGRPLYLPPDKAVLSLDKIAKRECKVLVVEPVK
UniProt O43325: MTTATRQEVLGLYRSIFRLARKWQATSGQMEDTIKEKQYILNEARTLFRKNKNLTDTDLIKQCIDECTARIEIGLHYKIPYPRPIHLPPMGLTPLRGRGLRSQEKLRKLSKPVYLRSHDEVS

Compound in a further experiment: CON(C)C(=O)N1N=C(c2cc(F)ccc2F)S[C@@]1(CCCN)c1ccccc1 [filanesib]
In outline: as §1

Compound in experiment [2]: CS(=O)(=O)c1ccc(-c2cnc(N)c(C(=O)Nc3ccccc3)n2)cc1
In outline:
as §1

Compound in another experiment: Cc1ccc(-n2nc(C(C)(C)C)cc2NC(=O)Nc2ccc(OCCN3CCOCC3)c3ccccc23)cc1 [doramapimod]
In outline:
as §1

Compound in a further experiment: CO[C@H]1C[C@@H]2CC[C@@H](C)[C@@](O)(O2)C(=O)C(=O)N2CCCC[C@H]2C(=O)O[C@H]([C@H](C)C[C@@H]2CC[C@H](n3cnnn3)[C@H](OC)C2)CC(=O)[C@H](C)/C=C(\C)[C@@H](O)[C@@H](OC)C(=O)[C@H](C)C[C@H](C)/C=C/C=C/C=C/1C [zotarolimus]
A digest of the protocol:
as §1

Compound in the next experiment: COc1cc(C(=O)O)ccc1NC(=O)[C@@H]1N[C@@H](CC(C)(C)C)[C@](C#N)(c2ccc(Cl)cc2F)[C@H]1c1cccc(Cl)c1F [idasanutlin]
A digest of the protocol: as §1

Compound in the next experiment: COc1cc(Nc2ncc3c(n2)-c2ccc(Cl)cc2C(c2c(F)cccc2OC)=NC3)ccc1C(=O)O [alisertib]
In outline: as §1

Compound in experiment [3]: COc1cc2nc(-c3cc(F)ccc3O)nc(N[C@@H]3CNC[C@H]3C(C)(C)O)c2cc1OC
In outline: as §1

Compound in a further experiment: COc1cc2ncnc(Nc3ccc(F)c(Cl)c3)c2cc1OCCCN1CCOCC1 [gefitinib]
A digest of the protocol: as §1

Compound in experiment [4]: COc1cccc2cc(-c3nc([C@H]4CC[C@H](C(=O)O)CC4)n4ncnc(N)c34)[nH]c12
In outline:
as §1

Compound in the next experiment: CS(=O)(=O)CCNCc1ccc(-c2ccc3ncnc(Nc4ccc(OCc5cccc(F)c5)c(Cl)c4)c3c2)o1 [lapatinib]
In outline: as §1

Compound in a further experiment: CS(=O)(=O)N1CCN(Cc2cc3nc(-c4cccc5[nH]ncc45)nc(N4CCOCC4)c3s2)CC1 [pictilisib]
In outline: as §1

Compound in another experiment: C[C@@H](Oc1cc(-c2cnn(C3CCNCC3)c2)cnc1N)c1c(Cl)ccc(F)c1Cl [crizotinib]
A digest of the protocol: as §1

Compound in experiment [5]: C[C@@H]1COCCN1C2=NC(=NC(=C2)C3(CC3)S(=O)(=O)C)C4=C5C=CNC5=CC=C4
In outline:
as §1

Compound in experiment [6]: C[C@H](C1=CC=C(C=C1)C(=O)NC2=C3C=CNC3=NC=C2)N
A digest of the protocol:
as §1

Compound in another experiment: Cc1cc(Nc2cc(CN3CCOCC3)c3nc(C)c(Cc4ccc(Cl)cc4F)n3n2)n[nH]1 [gandotinib]
In outline: as §1

Compound in experiment [7]: Cc1cc(SCc2sc(-c3ccc(C(F)(F)F)cc3)nc2C)ccc1OCC(=O)O
A digest of the protocol: as §1

Compound in another experiment: Cc1ccc(C(=O)N(CCCN)[C@@H](c2nc3cc(Cl)ccc3c(=O)n2Cc2ccccc2)C(C)C)cc1 [ispinesib]
A digest of the protocol: as §1

Compound in another experiment: Cc1cc(Nc2cc(N3CCN(C)CC3)nc(Sc3ccc(NC(=O)C4CC4)cc3)n2)n[nH]1 [tozasertib]
A digest of the protocol:
as §1

Compound in another experiment: C[C@H](Nc1ncnc2nc[nH]c12)c1cc2cccc(Cl)c2c(=O)n1-c1ccccc1 [duvelisib]
A digest of the protocol: as §1

The other results are listed elsewhere or left out.

Take MAP4K3 (UniProt Q8IVH8): the log2 fold change in experiment [1] is inactive: -0.023; with filanesib, inactive: -0.117; in experiment [2], inactive: -0.089; with doramapimod, inactive: 0.002.

As for LSS (UniProt P48449), the log2 fold change in experiment [1] was inactive: 0.205; with filanesib, inactive: 0.026; with zotarolimus, inactive: -0.027; with idasanutlin it was inactive: -0.116; with alisertib it was inactive: 0.121; in [3], inactive: 0.16. The log2 fold change with gefitinib was inactive: 0.126; in [4], inactive: -0.014; with lapatinib, inactive: 0.02; in the experiment with pictilisib, inactive: 0.07; in experiment [2], inactive: 0.043; in the experiment with crizotinib it was active: 0.77. The log2 fold change in [5] was inactive: 0.081; in experiment [6], inactive: 0.02; with gandotinib, inactive: 0.044; in experiment [7] it was inactive: 0.017; with doramapimod, inactive: 0.024; with ispinesib, inactive: 0.111.

In the case of LYL1 (UniProt P12980), the log2 fold change in [1] is inactive: -0.037; with filanesib it was inactive: 0.153; in the experiment with zotarolimus it was inactive: -0.073; with idasanutlin, inactive: 0.04; in the experiment with alisertib, inactive: -0.091; in experiment [3], inactive: 0.16. Moreover, the log2 fold change with gefitinib is inactive: 0.027; in [4] it was inactive: -0.134; with lapatinib it was inactive: -0.012; in experiment [2] it was inactive: -0.005; in the experiment with crizotinib it was inactive: -0.137; in experiment [5], inactive: 0.164. Further, the log2 fold change in experiment [6] was inactive: 0.157; with tozasertib it was inactive: 0.068; in the experiment with doramapimod it was inactive: 0.153; in the experiment with ispinesib, inactive: -0.007.

With LSM5 (UniProt Q9Y4Y9), the log2 fold change was inactive: -0.114 in experiment [1]; inactive: -0.101 with filanesib; inactive: -0.055 in the experiment with zotarolimus; inactive: -0.09 with alisertib; inactive: -0.042 with gefitinib; inactive: 0.179 in [4]. The log2 fold change with pictilisib was inactive: -0.423; in [2], inactive: -0.109; in the experiment with crizotinib, inactive: -0.034; in experiment [5], inactive: -0.131; in experiment [6], inactive: 0.225; with gandotinib, inactive: -0.291. Besides, the figures for the log2 fold change in the experiment with tozasertib, in the experiment with doramapimod and in the experiment with ispinesib were inactive: -0.322, inactive: 0.023 and inactive: 0.007, respectively.

For MAFF (UniProt Q9ULX9), the log2 fold change in [1] was inactive: -0.115; with filanesib, inactive: -0.311; with idasanutlin, inactive: 0.088; in the experiment with alisertib, inactive: -0.073; with gefitinib, inactive: -0.103; in [4], inactive: -0.159. Besides, the log2 fold change with pictilisib was inactive: -0.093; in [2], inactive: -0.352; with crizotinib, inactive: 0.114; in the experiment with duvelisib it was inactive: -0.042; with gandotinib, inactive: 0.058; in experiment [7], inactive: -0.048. Besides, the log2 fold change is inactive: 0.046 in the experiment with doramapimod and inactive: -0.104 in the experiment with ispinesib.

Consider MAP11 (UniProt Q8WVR3), for which the log2 fold change in experiment [1] was inactive: -0.117; in the experiment with filanesib, inactive: 0.216; with zotarolimus, inactive: -0.138; with alisertib it was inactive: -0.032; with gefitinib, inactive: -0.086; in experiment [4], inactive: 0.105. Besides, the log2 fold change was inactive: 0.105 in the experiment with pictilisib; inactive: 0.078 in [2]; inactive: -0.03 with crizotinib; inactive: 0.115 in experiment [5]; inactive: 0.129 in experiment [6]; inactive: -0.032 with gandotinib. In addition, in the experiment with doramapimod, the log2 fold change is inactive: 0.153.

LYRM1 (UniProt O43325): the log2 fold change in experiment [1] was inactive: -0.025; with filanesib it was inactive: -0.028; in the experiment with zotarolimus, inactive: 0.019; with alisertib it was inactive: -0.006; in [3], inactive: 0.029; in the experiment with gefitinib it was inactive: -0.025. The log2 fold change is inactive: -0.014 in [4]; inactive: 0.091 with lapatinib; inactive: 0.135 with pictilisib; inactive: 0.019 in experiment [2]; inactive: -0.262 in the experiment with crizotinib; inactive: 0.002 in [5]. Also, the log2 fold change in experiment [6] is inactive: 0.006; with duvelisib it was inactive: 0.05; with gandotinib it was inactive: 0.012; in the experiment with tozasertib it was inactive: -0.062; in experiment [7], inactive: -0.023; with doramapimod it was inactive: 0.37. Moreover, the log2 fold change in the experiment with ispinesib was inactive: 0.019.

The record behind these values is the supplement of paper PMC10849652.
